Measurements reported in PubChem BioAssay AID504444 (National Center for Advancing Translational Sciences (NCATS), 2011).
About 7,500 (2.1%) of roughly 360,000 compounds were called active. This list was built around the results that the source calls inconclusive (neither active nor inactive); the mix of calls is not that of the screen. Calls come from the whole dose curve; as a rule, active = well fitted inhibition curve with a large enough effect; inconclusive = small, poorly fitted or top-dose-only effect, or effect the other way; inactive = flat fitted curve, though single readings scatter. Potencies beside an inconclusive call are fits to weak or partial responses and may not hold up.
% is set by controls: 0 for no effect and ±100 for the full control effect; potency is the fitted concentration of half-maximal effect.

Test: Nrf2 qHTS screen for inhibitors; note: nearly all actives have a fitted effect of over 60% in size
Conditions: A549 ARE-Fluc reporter, luciferase luminescence, 18-24 h; activity change, negative = inhibition: at 46 µM (top of the series)
Outline: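 Two sequential reads on A549 ARE_Fluc cells exposed to compound for 18-24 h: a CellTiter-Fluor fluorescence read for viability, then a luciferase luminescence read for Nrf2/ARE activity.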
For `N#CC1=C(N)Oc2cc(N)ccc2C1C1CC=CCC1` (centres undefined), the Potency was inconclusive: 23.1 µM [falling, partial curve, poor fit]. With `C=C(C(=O)c1ccccc1)C(C)C(=C)C(=O)c1ccccc1` the Potency was inconclusive: 29.1 µM [falling, single point]. For `CC(=O)CSc1ccc(-c2nc3cc(C)c(C)cc3[nH]2)cn1`, the Potency was inconclusive: 0.92 µM [activator, partial curve, poor fit]. For `Cc1nc(-c2ccc(S(=O)(=O)Oc3ccc(Cl)cc3Cl)s2)cs1`, the Potency was inconclusive: 18.4 µM [falling, single point]. In the case of `Cc1cc(C)cc(-n2c(C)c3c(C)nnc(C)c3c2C)c1`, the Potency is reported as inconclusive: 25.9 µM [falling, single point]. In the case of `O=C(NCC(c1cccs1)N1CCOCC1)c1ccccc1NS(=O)(=O)c1cc([N+](=O)[O-])ccc1Cl` (centres undefined), the Potency is reported as inconclusive: 10.3 µM [falling, single point]. With `CC(=O)Nc1cc[n+](CC(=O)c2ccc(Cl)cc2)cc1` the Potency was active: 23.1 µM. For `Cc1ccc(-n2c(=O)c3sc4ccccc4c3n(C)c2=O)cc1F`, the Potency was inconclusive: 1.3 µM [falling, full curve, poor fit]. With `Cc1ccc(Nc2nc(N)nc(COC(=O)c3ccc(Br)o3)n2)cc1` the Potency was inconclusive: 2.31 µM [activator, partial curve]. With `CC(=O)Sc1nc(-c2ccccc2)[nH]c1S(=O)(=O)c1ccc(C)cc1` the “activity change, negative = inhibition” value was inactive: 7.27%. In the case of `COc1ccc(CN2CCN(Cc3ccc4ccccc4c3)CC2)cc1OC`, the Potency is reported as inconclusive: 29.1 µM [falling, single point]. With `COc1cccc(NC(=O)c2oc3ccccc3c2NC(=O)c2ccc(F)c(F)c2)c1` the “activity change, negative = inhibition” value was inactive: -5.55%. With `CC1=C(C(=O)OCc2ccccc2)C(c2ccc([N+](=O)[O-])cc2)NC(=O)N1` (centres undefined) the Potency was inconclusive: 29.1 µM [falling, single point]. In the case of `CC(C)Cc1ccc(C(C)C(=O)N2CCOCC2)cc1` (centres undefined), the Potency is reported as inconclusive: 4.61 µM [falling, partial curve, poor fit]. With `S=C(N/N=C/c1ccc(Br)cc1)N1CCCCC1` the Potency was inconclusive: 2.06 µM [activator, partial curve, poor fit]. For `O=[N+]([O-])c1cc(S(=O)(=O)NC2=NCCCCC2)ccc1NCC1CCCCC1`, the Potency was inconclusive: 29.1 µM [falling, single point]. For `Cc1oc2cc3oc(=O)c(CC(=O)NCc4ccccc4)c(C)c3cc2c1C`, the “activity change, negative = inhibition” value was inactive: 5.89%. In the case of `O=C(Cn1nc(-c2ccco2)ccc1=O)Nc1ccc(Br)cc1`, the “activity change, negative = inhibition” value is reported as inactive: 2.93%. For `COc1ccc(-c2n[nH]c(C)c2-c2cnn(-c3ccccc3)c2)c(O)c1`, the “activity change, negative = inhibition” value was inactive: -13.6%. For `CCc1cc2c(=O)c(-c3cnn(-c4ccccc4)c3)c(C)oc2cc1OCC(=O)Nc1cccc(C)c1`, the “activity change, negative = inhibition” value was inactive: 2.82%. In the case of `Cc1ccc(N/C(C(Cl)=C(Cl)Cl)=C(/Cl)[N+](=O)[O-])c(C)c1`, the “activity change, negative = inhibition” value is reported as inactive: -11.2%. For `CCN(CC)C(=O)c1ccc2c(=O)n(Cc3ccc4c(c3)OCO4)c(=S)[nH]c2c1`, the Potency was inconclusive: 29.1 µM [falling, single point]. For `CC(=NNC(=S)N1CCN(c2ccccn2)CC1)c1nccs1`, the Potency was active: 13 µM. With `N#Cc1ccc(OCC(=O)OCC(=O)Nc2sccc2C(N)=O)cc1` the “activity change, negative = inhibition” value was inactive: -4.95%. In the case of `C=CCNC(=O)C1CC1(c1ccc(C)cc1)c1ccc(C)cc1` (centres undefined), the Potency is reported as inconclusive: 29.1 µM [falling, single point]. In the case of `COc1ccc(N(CC(=O)NCC2CCCO2)S(=O)(=O)c2ccc(C)cc2)cc1OC` (centres undefined), the “activity change, negative = inhibition” value is reported as inactive: 4.91%. For `COCCN(C(=O)C1CC(=O)N(Cc2ccccc2)C1)c1nc(-c2ccc([N+](=O)[O-])cc2)cs1` (centres undefined), the Potency was inconclusive: 25.9 µM [falling, single point]. For `Cc1ccc(NC(=O)C2=NNC(=O)CC2)cc1F`, the “activity change, negative = inhibition” value was inactive: 5.88%. For `CCCCCc1ccc(OCCCC[n+]2ccccc2)c(CCCCC)c1`, the Potency was active: 18.4 µM. With `CC(Oc1ccccc1)C(=O)Nc1ccc(OCc2cc(=O)n3ccsc3n2)cc1` (centres undefined) the Potency was inconclusive: 11.6 µM [falling, partial curve, poor fit]. With `Cc1cc(NC(=O)CSc2nc(-c3cccnc3)ccc2C#N)no1` the Potency was inconclusive: 8.2 µM [falling, partial curve]. In the case of `COc1ccc(-c2nn(-c3ccccc3)cc2C(=O)N/N=C/c2ccc([N+](=O)[O-])o2)cc1`, the Potency is reported as inconclusive: 5.8 µM [falling, full curve, poor fit]. In the case of `CCC(=O)N1CCc2cc(Br)cc(S(=O)(=O)N3CCCC(C(=O)Nc4cccc(C)c4C)C3)c21` (centres undefined), the Potency is reported as inconclusive: 20.6 µM [falling, single point]. In the case of `COc1cccc(/C=N/n2cnc3ccccc32)c1OC`, the Potency is reported as inconclusive: 1.16 µM [activator, full curve]. For `Cc1ccccc1NC(=O)c1c(NC(=O)c2ccco2)sc2c1CCC(C(C)(C)C)C2` (centres undefined), the “activity change, negative = inhibition” value was inactive: 15.7%. For `O=c1[nH]c2ccccc2cc1CN(Cc1ccco1)S(=O)(=O)c1ccc(F)cc1`, the Potency was inconclusive: 29.1 µM [falling, single point]. For `COc1ccc(C(=O)NCCc2ccccc2)cc1[N+](=O)[O-]`, the Potency was inconclusive: 1.46 µM [activator, full curve]. With `COc1ccc(N2C(=O)CS(=O)(=O)C23C(=O)N(Cc2ccc(F)cc2)c2ccc(C)cc23)cc1` (centres undefined) the “activity change, negative = inhibition” value was inactive: -11.5%. With `O=c1cnnc(N/N=C/c2c[nH]c3ccccc23)[nH]1` the Potency was inconclusive: 0.116 µM [activator, full curve, poor fit]. With `COCCn1c(=NC(=O)c2ccc(S(=O)(=O)N3CCOCC3)cc2)sc2cc(S(N)(=O)=O)ccc21` the “activity change, negative = inhibition” value was inactive: 16.1%. With `CS(=O)(=O)N(CC(=O)Nc1ccccc1C(=O)NCc1ccco1)c1ccc2c(c1)OCCO2` the Potency was inconclusive: 29.1 µM [falling, single point]. In the case of `O=C(c1ccc2nc(Cc3ccccc3F)oc2c1)N1CCCC1`, the Potency is reported as inconclusive: 2.59 µM [activator, full curve]. For `Cc1cccc2sc(NC(=O)C3CC3)nc12`, the Potency was inconclusive: 29.1 µM [activator, single point]. With `Cc1cccc(NC(=O)c2ccc(C3SCC(=O)N3CCc3ccccc3)cc2)c1C` (centres undefined) the Potency was inconclusive: 29.1 µM [falling, single point].
